These are yes or no findings as the source states them, for the method shown. Binding seen in cells or lysates may run through a third protein. A yes stands for co-enrichment or nearness to the bait. Other partners may have been found. Sequences can lack the tags named with a protein.
Molecular target: T1, NTAP-tagged TRAPPC12 (mouse) (UniProt Q8K2L8)
T1 sequence: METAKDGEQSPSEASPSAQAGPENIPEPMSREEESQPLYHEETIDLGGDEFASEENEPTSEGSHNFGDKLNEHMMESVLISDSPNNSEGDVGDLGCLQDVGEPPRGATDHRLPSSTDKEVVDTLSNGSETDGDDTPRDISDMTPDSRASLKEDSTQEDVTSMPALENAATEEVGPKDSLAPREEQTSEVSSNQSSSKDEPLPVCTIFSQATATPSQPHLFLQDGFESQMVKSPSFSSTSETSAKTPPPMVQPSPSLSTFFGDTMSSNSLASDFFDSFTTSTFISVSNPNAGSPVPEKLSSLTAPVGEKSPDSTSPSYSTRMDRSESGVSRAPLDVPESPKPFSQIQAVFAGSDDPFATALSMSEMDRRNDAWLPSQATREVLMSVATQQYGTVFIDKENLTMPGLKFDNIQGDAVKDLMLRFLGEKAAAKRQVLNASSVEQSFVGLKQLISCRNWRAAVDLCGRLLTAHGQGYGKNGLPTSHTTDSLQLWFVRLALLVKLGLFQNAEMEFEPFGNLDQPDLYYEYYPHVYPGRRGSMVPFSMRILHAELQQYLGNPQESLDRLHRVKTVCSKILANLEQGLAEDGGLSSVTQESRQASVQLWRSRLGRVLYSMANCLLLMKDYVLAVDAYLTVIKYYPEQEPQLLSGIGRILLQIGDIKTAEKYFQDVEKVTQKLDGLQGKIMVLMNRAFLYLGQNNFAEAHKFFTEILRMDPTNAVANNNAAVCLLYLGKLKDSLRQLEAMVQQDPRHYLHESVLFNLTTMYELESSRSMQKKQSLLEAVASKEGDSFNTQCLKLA
Test: affinity purification with mass spectrometry; tandem affinity purification (TAP) of NTAP-TRAPPC12; mass spectrometry

B1: Oral-facial-digital syndrome 1 protein found in the tandem affinity purification of NTAP-TRAPPC12 (protein, UniProt O75665 1-1012)
chain: MMAQSNMFTVADVLSQDELRKKLYQTFKDRGILDTLKTQLRNQLIHELMHPVLSGELQPRSISVEGSSLLIGASNSLVADHLQRCGYEYSLSVFFPESGLAKEKVFTMQDLLQLIKINPTSSLYKSLVSGSDKENQKGFLMHFLKELAEYHQAKESCNMETQTSSTFNRDSLAEKLQLIDDQFADAYPQRIKFESLEIKLNEYKREIEEQLRAEMCQKLKFFKDTEIAKIKMEAKKKYEKELTMFQNDFEKACQAKSEALVLREKSTLERIHKHQEIETKEIYAQRQLLLKDMDLLRGREAELKQRVEAFELNQKLQEEKHKSITEALRRQEQNIKSFEETYDRKLKNELLKYQLELKDDYIIRTNRLIEDERKNKEKAVHLQEELIAINSKKEELNQSVNRVKELELELESVKAQSLAITKQNHMLNEKVKEMSDYSLLKEEKLELLAQNKLLKQQLEESRNENLRLLNRLAQPAPELAVFQKELRKAEKAIVVEHEEFESCRQALHKQLQDEIEHSAQLKAQILGYKASVKSLTTQVADLKLQLKQTQTALENEVYCNPKQSVIDRSVNGLINGNVVPCNGEISGDFLNNPFKQENVLARMVASRITNYPTAWVEGSSPDSDLEFVANTKARVKELQQEAERLEKAFRSYHRRVIKNSAKSPLAAKSPPSLHLLEAFKNITSSSPERHIFGEDRVVSEQPQVGTLEERNDVVEALTGSAASRLRGGTSSRRLSSTPLPKAKRSLESEMYLEGLGRSHIASPSPCPDRMPLPSPTESRHSLSIPPVSSPPEQKVGLYRRQTELQDKSEFSDVDKLAFKDNEEFESSFESAGNMPRQLEMGGLSPAGDMSHVDAAAAAVPLSYQHPSVDQKQIEEQKEEEKIREQQVKERRQREERRQSNLQEVLERERRELEKLYQERKMIEESLKIKIKKELEMENELEMSNQEIKDKSAHSENPLEKYMKIIQQEQDQESADKSSKKMVQEGSLVDTLQSSDKVESLTGFSHEELDDSW
binding: binds
